Counter-ions that a name gives are not always drawn. In all, about 1,100 compounds were measured (“Wnt reporter firefly/Renilla luciferase ratio relative to plate median”: median about 1.1, highest 2% from about 1.6 on). This is a selection; strong and weak results do not stand in their true shares.
Tested on: HEK293T (UBE3A T485A transfected, BAR Wnt reporter)
Experiment: Wnt reporter firefly/Renilla luciferase ratio relative to plate median (fold (linear ratio)); higher = more Wnt/beta-catenin reporter activation
Conditions: 24 h
Summary of the method: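 Chemicals at 0.01–100 uM were left on transfected HEK293T cells for 24 h, after a four-hour wait following transfection. The cells held a BAR firefly luciferase Wnt reporter, TK-Renilla and an expression plasmid. Wnt activity, as the firefly/Renilla ratio from a Dual-Glo luciferase readout, and cell health, as raw Renilla, were median-centred within each plate. Results average four biological replicates.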

Row | SMILES | Wnt reporter firefly/Renilla luciferase ratio (concentration: 0.1 uM) | Wnt reporter firefly/Renilla luciferase ratio (concentration: 1 uM) | Wnt reporter firefly/Renilla luciferase ratio (concentration: 10 uM) | Wnt reporter firefly/Renilla luciferase ratio (concentration: 100 uM) | Wnt reporter firefly/Renilla luciferase ratio (concentration: 0.01 uM)
1 | ClC(Cl)(Cl)c1ccccc1 [Benzotrichloride] | 1.29 | 1.13 | 1.23 | 1.52 | –
2 | CN(C)C(=S)SSC(=S)N(C)C [Thiram] | – | – | – | – | 1.62
3 | CCC12COCN1COC2 [5-Ethyl-1-aza-3,7-dioxabicyclo[3.3.0]octane] | 1.03 | 1.12 | 0.987 | 1.47 | –
4 | C[C@]12CCC(=O)C=C1CC[C@@H]1[C@@H]2CC[C@@]2(C)[C@H]1CC[C@]2(C)O [17-Methyltestosterone] | 1.2 | 0.889 | 0.965 | 0.571 | –
5 | c1nc[nH]n1 [1H-1,2,4-Triazole] | 1.01 | 1.02 | 1.16 | 1.07 | –
6 | Clc1ccc(C(Cl)(Cl)Cl)cc1 [4-Chlorobenzotrichloride] | – | – | – | 2.38 | –
7 | CNC(=O)Oc1ccccc1OC(C)C [Propoxur] | 0.968 | 1.02 | 1.11 | 1.19 | 1
8 | CNC(=O)Oc1cccc(N=CN(C)C)c1.Cl [Formetanate hydrochloride] | 0.828 | 0.919 | 1.14 | 1.42 | 0.82
9 | CCCOC/C(=N\c1ccc(Cl)cc1C(F)(F)F)n1ccnc1 [Triflumizole] | 1.65 | 1.53 | 1.91 | 1.72 | 1.29
10 | CSC(=O)c1c(C(F)F)nc(C(F)(F)F)c(C(=O)SC)c1CC(C)C [Dithiopyr] | 1.19 | 1.03 | 1.02 | 0.64 | 1.47
11 | CCC(=O)Nc1ccc(Cl)c(Cl)c1 [Propanil] | 1.71 | – | – | – | –
12 | CCCCC(CC)COC(=O)CCCCC(=O)OCC(CC)CCCC (stereo unspecified) [Di(2-ethylhexyl) adipate] | 1.32 | 1.11 | 1.37 | 1.42 | –
13 | CCN(CC)N=O [N-Nitrosodiethylamine] | 1.12 | 1.13 | 1.27 | 1.82 | –
14 | O=C1C2CC=CCC2C(=O)N1SC(Cl)(Cl)Cl (stereo unspecified) [Captan] | 1.27 | 1.15 | 1.19 | – | 1.45
15 | CN=C=S [Methyl isothiocyanate] | 1.17 | 1.1 | 1.11 | 1.5 | 1.37
16 | CSC(C)(C)C=NO [Aldicarb oxime] | 1.13 | 1.13 | 1.01 | 1.34 | –
17 | CN(C)c1ccc(C(=O)c2ccc(N(C)C)cc2)cc1 [Michler's ketone] | 0.875 | 0.878 | 0.65 | 0.132 | –
18 | CC1=C2C[C@H]3[C@@H](CC=C4C[C@@H](O)CC[C@@]43C)[C@@H]2CC[C@]12O[C@@H]1C[C@H](C)CN[C@H]1[C@H]2C [Cyclopamine] | 1.01 | 0.989 | 0.989 | 0.518 | –
19 | CC(C)(OOC(C)(C)c1ccccc1)c1ccccc1 [Dicumyl peroxide] | 1.15 | 0.998 | 0.968 | 1.39 | –
20 | CCNc1nc(Cl)nc(NC(C)(C)C)n1 [Terbutylazine] | 1.21 | 1.24 | 1.22 | 1.04 | –
21 | CC(C)N(C(=O)SCC(Cl)=C(Cl)Cl)C(C)C [Tri-allate] | 0.999 | 0.912 | 1.16 | 1.43 | 0.896
22 | C=C(C)CN(CC)c1c([N+](=O)[O-])cc(C(F)(F)F)cc1[N+](=O)[O-] [Ethalfluralin] | 1.2 | 1.02 | 1.13 | 1.37 | 0.93

Row | SMILES | Wnt reporter firefly/Renilla luciferase ratio (concentration: 0.1 uM) | Wnt reporter firefly/Renilla luciferase ratio (concentration: 1 uM) | Wnt reporter firefly/Renilla luciferase ratio (concentration: 10 uM) | Wnt reporter firefly/Renilla luciferase ratio (concentration: 100 uM) | Wnt reporter firefly/Renilla luciferase ratio (concentration: 0.01 uM)
23 | O=[N+]([O-])/N=C1\NCCN1Cc1ccc(Cl)nc1 [Imidacloprid] | 0.767 | 0.918 | 0.826 | 1.06 | 0.739
24 | CCCCNC(=O)OCC#CI [3-Iodo-2-propynyl-N-butylcarbamate] | 0.915 | 1.09 | 1.02 | – | 1.14
25 | C1=CCCC=CCCC=CCC1 [1,5,9-Cyclododecatriene] | 1.17 | 1.13 | 1.25 | 1.6 | –
26 | CC1=NNC(=O)N(/N=C/c2cccnc2)C1 [Pymetrozine] | 0.846 | 0.887 | 0.985 | 1.15 | 1.05
27 | CC(C)(O)C(=O)Nc1ccc([N+](=O)[O-])c(C(F)(F)F)c1 [Hydroxyflutamide] | 0.867 | 1.12 | 1.03 | 0.388 | –
28 | CC1COC(Cn2cncn2)(c2ccc(Oc3ccc(Cl)cc3)cc2Cl)O1 (stereo unspecified) [Difenoconazole] | 1.22 | 0.952 | 0.468 | 0.35 | 1.13
29 | CCNP(=S)(OC)O/C(C)=C/C(=O)OC(C)C (stereo unspecified) [Propetamphos] | 1.12 | 0.9 | 0.856 | 0.571 | 1.23
30 | CCOc1cc(C(C)(C)C)ccc1C1COC(c2c(F)cccc2F)=N1 (stereo unspecified) [Etoxazole] | 1.25 | 1 | 1 | 0.646 | 1.45
31 | [Na+].[O-][Cl+][O-] [Sodium chlorite] | 1.21 | 1.01 | 0.808 | 1.25 | –
32 | CCOP(=O)(OCC)Oc1cc(C)nc(C(C)C)n1 [Diazoxon] | 1.15 | 1.11 | 0.964 | 1.26 | 1.08
33 | CCc1nn(C)c(C(=O)NCc2ccc(C(C)(C)C)cc2)c1Cl [Tebufenpyrad] | 0.632 | 0.279 | 0.218 | 0.51 | 0.583
34 | Cc1cccc(C)c1N [2,6-Dimethylaniline] | 1.15 | 1.04 | 1.26 | 1.15 | –
35 | O=C(NC(=O)c1c(F)cccc1F)Nc1cc(Cl)c(OC(F)(F)C(F)F)c(Cl)c1 [Hexaflumuron] | 1.11 | 1.01 | 0.995 | 0.99 | –
36 | CCCSP(=O)(OCC)SCCC [Ethoprop] | 1.32 | 1.13 | 1.15 | 0.804 | 1.21
37 | COC(=O)NS(=O)(=O)c1ccc(N)cc1 [Asulam] | 1.19 | 1.06 | 0.993 | 1.33 | 1.32
38 | CNC(=S)[S-].O.O.O.[Na+] [Metam-sodium hydrate] | 0.921 | 0.977 | 1.06 | 1.1 | 0.905
39 | CCCCOC(=O)c1ccccc1C(=O)O [Monobutyl phthalate] | – | 2.24 | – | 1.75 | –
40 | COc1ccc(-c2ccccc2)cc1NNC(=O)OC(C)C [Bifenazate] | 1.07 | 1.08 | 0.882 | 0.576 | 1.03
41 | COP(=S)(OC)SCN1C(=O)c2ccccc2C1=O [Phosmet] | 1.07 | 0.925 | 1.47 | 1.65 | –
42 | Oc1cccc2cccnc12 [8-Hydroxyquinoline] | 1.01 | 1.15 | 0.909 | – | –
43 | Clc1nc(Cl)c(Cl)c(Cl)c1Cl [Pentachloropyridine] | 0.898 | 0.89 | 0.876 | 1.23 | –
44 | Cc1cc(Cc2ccc(N)c(C)c2)ccc1N [4,4'-Methylenebis(2-methylaniline)] | 0.933 | 0.955 | 0.928 | 0.331 | –

Row | SMILES | Wnt reporter firefly/Renilla luciferase ratio (concentration: 0.1 uM) | Wnt reporter firefly/Renilla luciferase ratio (concentration: 1 uM) | Wnt reporter firefly/Renilla luciferase ratio (concentration: 10 uM) | Wnt reporter firefly/Renilla luciferase ratio (concentration: 100 uM) | Wnt reporter firefly/Renilla luciferase ratio (concentration: 0.01 uM)
45 | O=C(Nc1ccccc1)Nc1cnns1 [Thidiazuron] | 0.856 | 0.907 | 0.822 | 0.155 | 0.815
46 | COS(C)(=O)=O [Methyl methanesulfonate] | 0.999 | 0.797 | 1.14 | 1.24 | –
47 | O=C(O)c1cc(Oc2ccc(C(F)(F)F)cc2Cl)ccc1[N+](=O)[O-] [Acifluorfen] | 1.12 | 1.2 | 1.16 | 1.25 | 1.13
48 | O=C(O)COc1nc(Cl)c(Cl)cc1Cl [Triclopyr] | 1.25 | 1.28 | 1.22 | 1.2 | 1.5
49 | COc1ccc(C(=CC(=O)N2CCOCC2)c2ccc(Cl)cc2)cc1OC [Dimethomorph] | 0.875 | 1.02 | 0.911 | 0.379 | 0.683
50 | CCOCN(C(=O)CCl)c1c(C)cccc1CC [Acetochlor] | 1.1 | 0.966 | 0.935 | 0.781 | 0.848
51 | CCOS(=O)(=O)OCC [Diethyl sulfate] | 0.936 | 1 | 1.14 | 1.53 | –
52 | CCc1cnc(C2=NC(C)(C(C)C)C(=O)N2)c(C(=O)O)c1 (stereo unspecified) [Imazethapyr] | 1.05 | 1.17 | 1.21 | 1.24 | 1.15
53 | CCCOc1nn(C(=O)[N-]S(=O)(=O)c2ccccc2C(=O)OC)c(=O)n1C.[Na+] [Propoxycarbazone-sodium] | 0.992 | 1.07 | 1.13 | 1.45 | 0.752
54 | O=S(=O)(O)C(F)(F)C(F)(F)C(F)(F)C(F)(F)C(F)(F)C(F)(F)C(F)(F)C(F)(F)F | 1.09 | 1.07 | 1.06 | 1.23 | 1.2
55 | Cc1ccccc1[N+](=O)[O-] [2-Nitrotoluene] | 0.749 | 0.924 | 0.773 | 1.02 | –
56 | Nn1cnnc1 [4-Amino-1,2,4-triazole] | 1.22 | 0.928 | 1.27 | 1.43 | –
57 | CC1(C)CON(Cc2ccccc2Cl)C1=O [Clomazone] | 0.906 | 0.976 | 1 | 0.762 | 0.899
58 | C1CC2OC2CC1C1CO1 (stereo unspecified) [4-Vinyl-1-cyclohexene dioxide] | 0.954 | 0.902 | 0.885 | 0.66 | –
59 | Cc1cccc(N)c1N [2,3-Diaminotoluene] | 1.12 | 1.4 | 1.43 | 0.698 | –
60 | Cc1ccc(N)c(N)c1 [3,4-Diaminotoluene] | 1.18 | 1.26 | 1.2 | – | –
61 | c1ccc2c(c1)-c1cccc3cccc-2c13 [Fluoranthene] | 1.24 | 0.9 | 1.06 | 1.09 | –
62 | COCC(C)N(C(=O)CCl)c1c(C)csc1C (stereo unspecified) [Dimethenamid] | 1.58 | 1.07 | 1.21 | 0.568 | 1.49
63 | Cc1ccc(-c2c(Cl)nc(C#N)n2S(=O)(=O)N(C)C)cc1 [Cyazofamid] | 1.4 | 1.07 | 0.975 | – | 1.17
64 | CCNS(=O)(=O)C(F)(F)C(F)(F)C(F)(F)C(F)(F)C(F)(F)C(F)(F)C(F)(F)C(F)(F)F [Sulfluramid] | 1.02 | 1.56 | 1.38 | 1.39 | –
65 | CNC(=O)ON=C(C)SC [Methomyl] | 1.08 | 1.03 | 0.996 | 1.19 | 0.847

4 compounds already listed, ordered by molar mass, smallest number first.
Row | SMILES | Wnt reporter firefly/Renilla luciferase ratio (concentration: 0.1 uM) | Wnt reporter firefly/Renilla luciferase ratio (concentration: 1 uM) | Wnt reporter firefly/Renilla luciferase ratio (concentration: 10 uM) | Wnt reporter firefly/Renilla luciferase ratio (concentration: 100 uM) | Wnt reporter firefly/Renilla luciferase ratio (concentration: 0.01 uM)
15 | CN=C=S [Methyl isothiocyanate] | 1.17 | 1.1 | 1.11 | 1.5 | 1.37
61 | c1ccc2c(c1)-c1cccc3cccc-2c13 [Fluoranthene] | 1.24 | 0.9 | 1.06 | 1.09 | –
36 | CCCSP(=O)(OCC)SCCC [Ethoprop] | 1.32 | 1.13 | 1.15 | 0.804 | 1.21
19 | CC(C)(OOC(C)(C)c1ccccc1)c1ccccc1 [Dicumyl peroxide] | 1.15 | 0.998 | 0.968 | 1.39 | –

Reference: the supplement of paper PMC9254222
